{
  "source": "patent US20100150879A1",
  "binders": {"B1": {"name": "VE-cadherin, endogenous in hdMVEC (receptor, human, UniProt P33151 48-784, looked up)", "chain": "DWIWNQMHIDEEKNTSLPHHVGKIKSSVSRKNAKYLLKGEYVGKVFRVDAETGDVFAIERLDRENISEYHLTAVIVDKDTGENLETPSSFTIKVHDVNDNWPVFTHRLFNASVPESSAVGTSVISVTAVDADDPTVGDHASVMYQILKGKEYFAIDNSGRIITITKSLDREKQARYEIVVEARDAQGLRGDSGTATVLVTLQDINDNFPFFTQTKYTFVVPEDTRVGTSVGSLFVEDPDEPQNRMTKYSILRGDYQDAFTIETNPAHNEGIIKPMKPLDYEYIQQYSFIVEATDPTIDLRYMSPPAGNRAQVIINITDVDEPPIFQQPFYHFQLKENQKKPLIGTVLAMDPDAARHSIGYSIRRTSDKGQFFRVTKKGDIYNEKELDREVYPWYNLTVEAKELDSTGTPTGKESIVQVHIEVLDENDNAPEFAKPYQPKVCENAVHGQLVLQISAIDKDITPRNVKFKFILNTENNFTLTDNHDNTANITVKYGQFDREHTKVHFLPVVISDNGMPSRTGTSTLTVAVCKCNEQGEFTFCEDMAAQVGVSIQAVVAILLCILTITVITLLIFLRRRLRKQARAHGKSVPEIHEQLVTYDEEGGGEMDTTSYDVSVLNSVRRGGAKPPRPALDARPSLYAQVQKPPRHAPGAHGGPGEMAAMIEVKKDEADHDGDGPPYDTLHIYGYEGSESIAESLSSLGTDSSDSDVDYDFLNDWGPRFKMLAELYGSDPREELLY"}},
  "biological_target": "T1, p120-catenin (p120ctn), endogenous (human) (UniProt O60716)",
  "T1 sequence (looked up)": "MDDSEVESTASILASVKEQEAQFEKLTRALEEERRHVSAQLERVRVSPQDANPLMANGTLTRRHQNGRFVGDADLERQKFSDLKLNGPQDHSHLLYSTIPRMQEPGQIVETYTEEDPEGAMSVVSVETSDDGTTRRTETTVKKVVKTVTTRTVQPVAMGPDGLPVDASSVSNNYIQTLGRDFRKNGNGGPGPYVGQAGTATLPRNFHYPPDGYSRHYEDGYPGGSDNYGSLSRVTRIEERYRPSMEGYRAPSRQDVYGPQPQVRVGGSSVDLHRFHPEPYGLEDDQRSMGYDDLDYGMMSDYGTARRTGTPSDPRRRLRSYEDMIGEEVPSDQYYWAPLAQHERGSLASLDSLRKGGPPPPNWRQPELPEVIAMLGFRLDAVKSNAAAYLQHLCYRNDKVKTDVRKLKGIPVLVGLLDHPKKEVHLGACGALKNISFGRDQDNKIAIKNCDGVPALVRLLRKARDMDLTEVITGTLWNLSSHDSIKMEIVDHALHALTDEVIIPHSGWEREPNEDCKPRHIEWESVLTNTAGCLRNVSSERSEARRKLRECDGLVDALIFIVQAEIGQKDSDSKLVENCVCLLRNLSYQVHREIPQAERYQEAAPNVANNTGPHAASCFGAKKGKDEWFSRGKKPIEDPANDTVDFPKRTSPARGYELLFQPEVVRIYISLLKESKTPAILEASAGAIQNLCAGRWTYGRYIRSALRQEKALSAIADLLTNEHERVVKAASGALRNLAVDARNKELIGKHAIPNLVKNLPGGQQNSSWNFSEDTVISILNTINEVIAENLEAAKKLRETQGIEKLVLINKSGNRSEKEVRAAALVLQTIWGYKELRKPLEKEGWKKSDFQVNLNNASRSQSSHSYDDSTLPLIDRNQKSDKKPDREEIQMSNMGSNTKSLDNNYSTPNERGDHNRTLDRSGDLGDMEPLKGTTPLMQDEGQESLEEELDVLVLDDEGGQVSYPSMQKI",
  "assay": "co-immunoprecipitation from confluent EC extracts",
  "note": "These are yes or no findings as the source states them, for the method shown. Binding seen in cells or lysates may run through a third protein. Some binding calls cover weakened binding; strength is not graded here.",
  "data": [
    {"binder": "B1", "values": [
      {"measurement": "binding", "result": "binds"}
    ]}
  ]
}
